Results: article PMC8695909
These are yes or no findings as the source states them, for the method shown. Binding seen in cells or lysates may run through a third protein. Some entries that bind do so weakly or less than the wild type.

Protein sequences, listed by entry. Tags and fused reporters are not part of them.
UniProt O15169: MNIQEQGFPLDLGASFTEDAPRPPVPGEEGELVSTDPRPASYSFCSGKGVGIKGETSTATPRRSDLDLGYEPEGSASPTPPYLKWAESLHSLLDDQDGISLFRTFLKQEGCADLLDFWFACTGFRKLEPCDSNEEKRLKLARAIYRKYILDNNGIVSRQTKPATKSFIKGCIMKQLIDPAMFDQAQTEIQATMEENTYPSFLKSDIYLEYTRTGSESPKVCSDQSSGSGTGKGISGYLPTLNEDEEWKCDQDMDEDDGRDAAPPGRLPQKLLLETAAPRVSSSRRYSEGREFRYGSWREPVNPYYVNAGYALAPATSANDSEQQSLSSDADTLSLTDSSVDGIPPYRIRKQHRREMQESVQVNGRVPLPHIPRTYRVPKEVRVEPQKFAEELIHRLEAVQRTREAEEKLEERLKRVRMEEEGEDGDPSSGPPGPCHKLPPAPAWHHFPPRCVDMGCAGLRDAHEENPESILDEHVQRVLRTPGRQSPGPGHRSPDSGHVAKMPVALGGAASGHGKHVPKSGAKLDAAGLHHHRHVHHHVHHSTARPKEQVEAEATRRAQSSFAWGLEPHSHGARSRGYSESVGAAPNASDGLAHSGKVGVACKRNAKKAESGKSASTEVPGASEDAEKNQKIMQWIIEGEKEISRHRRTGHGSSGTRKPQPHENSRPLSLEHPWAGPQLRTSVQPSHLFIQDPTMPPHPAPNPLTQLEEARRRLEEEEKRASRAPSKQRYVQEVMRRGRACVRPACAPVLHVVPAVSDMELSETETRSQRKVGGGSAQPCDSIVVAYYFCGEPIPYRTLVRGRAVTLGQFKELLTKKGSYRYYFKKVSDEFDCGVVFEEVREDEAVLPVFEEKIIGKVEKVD

Target: T1, TRIM54 (endogenous) (human (endogenous in Hep3B)) (UniProt Q9BYV2)
T1 sequence: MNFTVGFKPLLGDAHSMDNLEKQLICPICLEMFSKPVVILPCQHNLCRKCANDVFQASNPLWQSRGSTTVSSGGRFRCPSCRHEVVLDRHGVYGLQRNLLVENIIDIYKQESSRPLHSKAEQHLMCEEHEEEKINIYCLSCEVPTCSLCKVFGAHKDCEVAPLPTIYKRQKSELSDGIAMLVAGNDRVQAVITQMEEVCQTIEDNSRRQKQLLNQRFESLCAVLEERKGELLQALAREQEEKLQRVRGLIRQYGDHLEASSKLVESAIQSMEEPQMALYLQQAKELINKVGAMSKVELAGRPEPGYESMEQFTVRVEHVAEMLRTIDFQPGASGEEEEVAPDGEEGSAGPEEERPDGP
Test: co-IP; endogenous TRIM54 and endogenous Axin1 in Hep3B cells; which protein was precipitated is not told

binding: binds
Substance: Axis inhibition protein 1 (Axin1) (from UniProt O15169 1-862)
